Results are given in words; binding and its absence hold for the method and conditions named. For part of these data: A result given as binding can be weak or reduced; the word gives no strength.
Assays:
Test in all cases: two-hybrid
[1] = biological target: GBD–NtNPR1(386-588) (tobacco (Nicotiana tabacum))
[2] = biological target: NtNPR1(466-588), reciprocal Gal4 fusion (Gal4 DNA-binding domain) (tobacco (Nicotiana tabacum))
[3] = biological target: Gal4 DNA-binding domain (GBD)–NPR1(386-465) (tobacco (Nicotiana tabacum))

B1: TGA1a (protein, UniProt P14232 1-359)
chain: MGICDPIHQLGMWDDFNSSFPSTSATMILEVDKCLEDQIPIMEKRLDNETEDTSHGTVGTSNRYEPETSKPVEKVLRRLAQNREAARKSRLRKKAYVQQLENSKLKLIQLEQELERARKQGMCVGGGVDASQLSYSGTASSGTAVFDMEYGHWVEEQTRQTNDLRIALHSQIGEAELRIIVDGYLNHYFDLFRMKATAAKADVLYIMSGMWKTSAERFFMWIGGFRPSELLKVLTPHLELLTEQQLREVCNLTQSCQQAEDALSQGMVKLHQILAEAVAAGRLGEGNYTLPQMGPAIEKLEDLVRFVNQADHLRQETLQQMSRILNTCQAAQGLLALGEYFERLRVLSSQWATRLREPT
binding [1]: binds

B2: NtTGA2.1 (protein, UniProt O24160 1-456)
chain: MASKIGTAGNRSGTTGMPSFISQIPVSNPMGTEANNTNTSRMSDFGVLEQYLGFRIGDGANVNRSPLFNSTSATNPAVGFEVSGTINRTLAPSNTSLPTATPRSQTMLLQSNLVSASGTHHENWGESNMADSGSRTDTSTDMDGDDKNQLIEAGQSSDKSKEKVLDQKTLRRLAQNREAARKSRLRKKAYVQQLENSRLKLSQLEQDLQRARQQGKYISNIADQSNGVGANGPLAFDAEYSRWLEEHNKHINELRTAVNAHASDPELRSIVNNVTAHFDEVFRVKGNAAKADVFHVLSGMWKTPAERCFMWIGGFRPSELLKLLVNQLEPLTEQQLAGIYNLQQSSHQAEDALSQGMEALQQSLAETLANGSPAPEGSSGDVANYMGQMAMAMGKLGTLEGFLRQADNLRQQTLQQMHRVLTTRQSARALLAINEYFSRLRALSSLWLARPREQLV
binding [2]: no binding
binding [3]: no binding

— publication doi:10.1101/543645
